# Laboratory results from PubChem BioAssay AID662 (National Center for Advancing Translational Sciences (NCATS), 2007).
# Several values for one entry are separate records, joined by “and”; a condition that tells them apart may be missing. Identical values can stand only once. The list shows a part of the results. These are further read-outs of the screen, such as a control signal, another cell line or another target. No call is given for them. Most of these compounds were active or inconclusive in the main read-out, so they are no random draw. Words in brackets tell the shape of the fitted curve; partial curves, single points and poor fits give uncertain potencies.
# Assay: Cell signaling CRE-BLA (Fsk stim)
# Conditions: CHO CRE-bla reporter (cAMP response element driving beta-lactamase), forskolin EC10, beta-lactamase ratio; measured here: 460 nm blue channel
# Method in brief: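 qHTS titration format; CRE-bla CHO reporter; stimulus EC10 NKH 477, a water-soluble forskolin. Read: CCF4 460/530 nm ratio. Potency expressed as AC50 for activators or inhibitors.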
row,SMILES,AC50
1,Cc1ccc2c(c1)cc(CN(Cc1ccccc1)C(=O)N(C)C)c1nnnn12,"0.00316 µM [falling, full curve, poor fit]"
2,CCCc1nc2oc3c(NCc4ccccn4)ncnc3c2c2c1COC(C)(C)C2,"1 µM [rising, full curve]"
3,CCc1cccc2c(-c3ccccc3)c3c(nc12)OCC3,"6.31 µM [rising, partial curve]"
4,O=C(CC1CCS(=O)(=O)C1)Nc1ccc[nH]c1=O (stereo not drawn),"12.6 µM [falling, partial curve, poor fit]"
5,Cc1ccc2c(c1)nc(NCCO)n2C,"31.6 µM [falling, single point]"
6,CC(C)C1N=C2c3ccccc3N=C(SCc3cc(=O)n4ccccc4n3)N2C1=O (stereo not drawn),"0.631 µM [rising, full curve]"
7,O=c1[nH]c2ccccc2nc1C(F)(F)C(F)F,"1.58 µM [rising, partial curve]"
8,CCOC(=O)c1[nH]c2ccc(F)cc2c1NC(=O)C(C)N1CCc2cc(OC)c(OC)cc2C1 (stereo not drawn),"12.6 µM [rising, single point]"
9,c1c2c(cc3sc(N4CCOCC4)nc13)OCCO2,"25.1 µM [rising, single point]"
10,CCOP(=O)(c1ccc(N(C)C)cc1)C(O)c1cc(OC)c(OC)c(OC)c1 (stereo not drawn),"0.0794 µM [falling, full curve, poor fit]"
11,CCOC(=O)/C(C#N)=C1/C=Nc2ccccc2N1,"12.6 µM [rising, partial curve]"
12,CC1(C)CC(=O)N(CC(=O)O)c2ccccc2S1,"25.1 µM [falling, single point]"
13,CCn1c(=O)cc(OCC(=O)N(C)c2ccccc2F)c2ccccc21,"10 µM [rising, single point]"
14,CC1C2CC(C(S(=O)(=O)N3CCOCC3)C2=O)C1(C)C (stereo not drawn),"0.126 µM [falling, full curve, poor fit]"
15,COCCn1c(=O)c(CCc2ccccc2)nc2cnc(Nc3cccc(OC)c3)nc21,"12.6 µM [rising, partial curve]"
16,NCCNS(=O)(=O)c1cccc2c(Cl)cccc12,"31.6 µM [falling, single point]"
17,CC(c1nnc(Sc2nnnn2-c2ccccc2)n1-c1ccc(F)cc1)N(C)C (stereo not drawn),"3.16 µM [falling, single point]"
18,O=C1c2ccccc2C(=O)N1CCCCN(C(=O)c1ccco1)c1ccc(Cl)cc1,"10 µM [falling, single point]"
19,CCCCCOc1ccc(C2C(C(C)=O)=C(C)Nc3ncnn32)cc1OC (stereo not drawn),"3.16 µM [rising, full curve]"
20,COc1ccc2[nH]cc(CCNc3cc(-c4ccc5c(c4)OCO5)ncn3)c2c1,"2 µM [rising, full curve]"
21,COc1ccc(-c2csc(Cc3nnc4n3CCCCC4)n2)cc1OC,"5.01 µM [rising, partial curve]"
22,COc1ccc(CCNC(=O)CSc2ncnc3c2oc2ccccc23)cc1OC,"12.6 µM [rising, partial curve]"

row,SMILES,AC50
1,O=C(Cc1ccccc1)Nc1ccccc1CO,"0.0251 µM [falling, full curve, poor fit]"
2,O=C(Nc1ccccc1-c1nnn(CC(=O)N2CCN(c3ccccc3)CC2)n1)c1cccs1,"0.00316 µM [falling, full curve, poor fit]"
3,Cc1nc(COC(=O)c2c(C)nn(-c3ccccc3)c2C)cs1,"7.94 µM [rising, partial curve]"
4,COC(=O)C1=C(C)NC(C)=C([N+](=O)[O-])[C@@H]1c1ccccc1C(F)(F)F,"20 µM [falling, partial curve, poor fit]"
5,CCOC(=O)N1CCN(C(=O)Nc2ccc(Cl)cc2Cl)CC1,"25.1 µM [falling, single point]"
6,O=C1c2ccc(Oc3ccc4c(c3)C(=O)N(CCCO)C4=O)cc2C(=O)N1CCCO,"5.01 µM [rising, partial curve]"
7,CCOC(=O)N1CCN(C(=O)C2CCCN(c3ncnc4c3sc3cccc(F)c34)C2)CC1 (stereo not drawn),"10 µM [rising, single point]"
8,CC[C@]1(O)C[C@H]2CN(CCc3c([nH]c4ccccc34)[C@](C(=O)OC)(c3cc4c(cc3OC)N(C=O)[C@H]3[C@@](O)(C(=O)OC)[C@H](OC(C)=O)[C@@]5(CC)C=CCN6CC[C@]43[C@H]65)C2)C1,"1.26 µM [rising, full curve]"
9,CCOc1nc(-c2ccc(C)cc2)ccc1-c1noc(COC)n1,"5.01 µM [rising, single point]"
10,COc1cc2c(cc1NCc1ccccn1)oc1ccccc12,"25.1 µM [rising, single point]"
11,Cc1ccc(S(=O)(=O)N2CCN(S(C)(=O)=O)C2)cc1,"0.398 µM [falling, partial curve]"
12,CCOC(=O)/C=C1\SCC(=O)N1Cc1ccc(Br)cc1,"20 µM [falling, partial curve]"
13,CCc1ccc(CCC(=O)Nc2nccs2)o1,"0.398 µM [falling, partial curve, poor fit]"
14,CC(OC1=CC(=O)CCC1)C(=O)c1ccccc1 (stereo not drawn),"0.00316 µM [falling, full curve]"
15,CCCCCn1c(CN2CCN(Cc3ccccc3)CC2)nc2c1c(=O)n(C)c(=O)n2C,"25.1 µM [rising, single point]"
16,Cc1ccc(-n2c3c(cc(C(=O)NC4CCSC4=O)c2=O)C(=O)CC(C)(C)C3)cc1 (stereo not drawn),"0.00398 µM [falling, full curve, poor fit]"
17,COc1cc(Nc2cc(C)nc3nc(C)nn23)cc(OC)c1OC,"2.51 µM [rising, full curve]"
18,O=C(NCc1cccs1)c1ccc2c(c1)ncn2C1CCCC1,"12.6 µM [rising, single point]"
19,c1ccc(-n2cnnc2SCc2nc3ccccc3s2)cc1,"10 µM [rising, single point]"
20,O=C(CCc1nc2ccccc2[nH]1)N1CCc2ccccc2C1,"12.6 µM [rising, partial curve]"
21,CCCCCCCCCCCC1=C(O)C(=O)C=C(O)C1=O,"31.6 µM [falling, single point] and 20 µM [falling, partial curve]"
